Where a chain is given by its changes, count along the chain named. The exact form of at least one protein or probe is not confirmed. At least one verdict rests on a figure or table, not on a statement of the authors. Where a protein sequence is shown, tags need not be part of it.

One data set concerns the target T1, SgrAI P27W (UniProt Q9F6L0).
T1 sequence (looked up): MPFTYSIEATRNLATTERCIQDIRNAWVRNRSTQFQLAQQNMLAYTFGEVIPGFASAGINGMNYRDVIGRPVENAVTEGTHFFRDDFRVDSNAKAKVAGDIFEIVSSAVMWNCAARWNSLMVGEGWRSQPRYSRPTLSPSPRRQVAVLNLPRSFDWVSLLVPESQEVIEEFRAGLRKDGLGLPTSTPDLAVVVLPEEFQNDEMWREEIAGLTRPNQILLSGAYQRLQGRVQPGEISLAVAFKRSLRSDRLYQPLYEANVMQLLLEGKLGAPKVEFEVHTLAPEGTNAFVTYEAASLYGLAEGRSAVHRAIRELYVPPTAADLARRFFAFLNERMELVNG
Description: EMSA (native PAGE). The note with it: 10 mM Ca2+, 1 uM SgrAI, no HMWS with PCP, native PAGE: same binding buffer, 30 min at 4 C, gel 89 mM Tris-borate with 10 mM Ca2+. Wild-type Kd values in Table 2 are cited from Park 2010 and not listed, recombinant protein, residues 1-339, label: 5' HEX on both strands (FPA), 5' 32P (native gel), letters put together from the description.

The target of the next data set is T2, SgrAI P27G (UniProt Q9F6L0).
T2 sequence (looked up): T1 sequence (looked up) with W27G
Description: EMSA (native PAGE). The conditions noted are these: 10 mM Ca2+, 1 uM SgrAI, no HMWS with PCP, native PAGE: same binding buffer, 30 min at 4 C, gel 89 mM Tris-borate with 10 mM Ca2+. Wild-type Kd values in Table 2 are cited from Park 2010 and not listed, recombinant protein, residues 1-339, label: 5' HEX on both strands (FPA), 5' 32P (native gel), letters put together from the description. Background: In EMSA bound probe runs differently from free probe, usually more slowly.

Regarding “AAGTCCACCGGTGGACTT (double strand) [18-1 (primary site)]”, the binding result with SgrAI P27W and with SgrAI P27G was “binds” each time.

Values taken from publication PMC2998434, “Domain Swapping in Allosteric Modulation of DNA Specificity” (PLoS Biology, 2010).
